The text below walks through data of paper PMC9498848.

Amino acid sequences for entries named in this document (tags omitted). A change or cut given only in a name is not applied to a line headed by its entry.
UniProt P47110: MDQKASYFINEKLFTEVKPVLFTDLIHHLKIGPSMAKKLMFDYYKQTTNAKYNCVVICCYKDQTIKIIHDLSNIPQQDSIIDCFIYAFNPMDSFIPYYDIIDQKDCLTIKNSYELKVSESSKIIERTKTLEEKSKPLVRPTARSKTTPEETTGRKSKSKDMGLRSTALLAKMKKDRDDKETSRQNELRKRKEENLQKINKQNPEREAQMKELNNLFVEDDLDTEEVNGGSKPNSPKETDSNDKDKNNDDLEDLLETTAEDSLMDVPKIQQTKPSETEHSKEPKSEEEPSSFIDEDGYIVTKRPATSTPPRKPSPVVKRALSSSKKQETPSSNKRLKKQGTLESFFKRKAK

In test [1] the target is Rev3, catalytic subunit of DNA polymerase ζ (GST-Rev3) (S. cerevisiae) (UniProt P14284). The test can be described thus: pull-down; co-purification from yeast overproducing GST-Rev3, Rev7, Pol31 and 7xHis-Pol32: glutathione Sepharose 4B (washes with 300, 200, 100 mM KCl), glutathione elution, GST cleaved with PreScission, then Ni-IMAC; 4 °C; subunits seen on Coomassie gel.

Test [2] deals with T1, Rev3-ΔCTD (GST-Rev3-ΔCTD), Rev3 lacking amino acids 1381-1504 (S. cerevisiae) (UniProt P14284).
T1 sequence: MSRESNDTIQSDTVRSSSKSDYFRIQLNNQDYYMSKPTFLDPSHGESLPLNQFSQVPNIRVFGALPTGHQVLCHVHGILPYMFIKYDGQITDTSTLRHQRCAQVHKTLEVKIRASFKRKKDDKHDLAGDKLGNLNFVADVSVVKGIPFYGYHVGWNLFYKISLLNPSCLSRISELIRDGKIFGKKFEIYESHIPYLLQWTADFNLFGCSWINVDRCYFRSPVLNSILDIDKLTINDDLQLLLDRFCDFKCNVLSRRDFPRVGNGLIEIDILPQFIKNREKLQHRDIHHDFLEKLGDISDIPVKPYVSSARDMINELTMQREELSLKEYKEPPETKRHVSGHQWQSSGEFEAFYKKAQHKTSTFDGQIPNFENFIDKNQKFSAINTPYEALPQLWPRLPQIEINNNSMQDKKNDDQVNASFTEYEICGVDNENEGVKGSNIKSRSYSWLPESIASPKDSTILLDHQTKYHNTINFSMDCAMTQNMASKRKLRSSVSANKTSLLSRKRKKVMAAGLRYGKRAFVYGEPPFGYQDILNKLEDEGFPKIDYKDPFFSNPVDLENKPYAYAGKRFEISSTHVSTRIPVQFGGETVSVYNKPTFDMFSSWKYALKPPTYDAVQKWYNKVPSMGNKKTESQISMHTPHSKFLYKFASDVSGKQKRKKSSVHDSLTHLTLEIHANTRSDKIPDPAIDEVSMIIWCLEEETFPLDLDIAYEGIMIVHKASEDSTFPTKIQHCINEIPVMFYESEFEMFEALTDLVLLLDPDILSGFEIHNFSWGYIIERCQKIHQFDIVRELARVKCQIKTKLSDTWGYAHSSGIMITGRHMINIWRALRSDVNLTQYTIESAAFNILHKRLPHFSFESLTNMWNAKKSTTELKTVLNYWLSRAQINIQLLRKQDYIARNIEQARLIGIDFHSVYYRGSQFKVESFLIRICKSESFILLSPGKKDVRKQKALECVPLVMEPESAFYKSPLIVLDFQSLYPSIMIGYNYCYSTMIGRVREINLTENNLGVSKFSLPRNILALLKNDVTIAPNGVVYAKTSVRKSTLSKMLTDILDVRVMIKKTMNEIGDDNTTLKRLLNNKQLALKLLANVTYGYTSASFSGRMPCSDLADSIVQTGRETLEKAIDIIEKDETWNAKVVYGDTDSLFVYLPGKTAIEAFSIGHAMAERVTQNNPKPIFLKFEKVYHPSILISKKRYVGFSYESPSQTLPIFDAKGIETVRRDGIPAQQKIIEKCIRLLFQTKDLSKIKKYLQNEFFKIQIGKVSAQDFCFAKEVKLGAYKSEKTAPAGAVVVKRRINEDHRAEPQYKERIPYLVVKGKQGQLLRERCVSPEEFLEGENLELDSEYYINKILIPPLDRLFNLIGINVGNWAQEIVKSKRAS
The test can be described thus: pull-down; co-purification from yeast overproducing GST-Rev3-ΔC, Rev7, Pol31 and 7xHis-Pol32: glutathione Sepharose 4B, glutathione elution, GST cleaved with PreScission, then Mono S column instead of Ni-IMAC; 4 °C; bands seen on Coomassie gel.

Results are given in words; binding and its absence hold for the method and conditions named. Binding seen in cells or lysates may run through a third protein. Some results given as binding are weak or reduced against the parent protein; the word gives no strength. For some of these results: Tags and fused reporters may be left off the sequences shown.

On to “Pol32, accessory subunit shared by pol ζ and pol δ (7xHIS_POL32) (from UniProt P47110 1-350)”, for which, in test [1], the binding entry is on record as “binds”.

B1: Pol31, accessory subunit shared by pol ζ and pol δ (protein, UniProt P46957 1-487)
chain: MDALLTKFNEDRSLQDENLSQPRTRVRIVDDNLYNKSNPFQLCYKKRDYGSQYYHIYQYRLKTFRERVLKECDKRWDAGFTLNGQLVLKKDKVLDIQGNQPCWCVGSIYCEMKYKPNVLDEVINDTYGAPDLTKSYTDKEGGSDEIMLEDESGRVLLVGDFIRSTPFITGVVVGILGMEAEAGTFQVLDICYPTPLPQNPFPAPIATCPTRGKIALVSGLNLNNTSPDRLLRLEILREFLMGRINNKIDDISLIGRLLICGNSVDFDIKSVNKDELMISLTEFSKFLHNILPSISVDIMPGTNDPSDKSLPQQPFHKSLFDKSLESYFNGSNKEILNLVTNPYEFSYNGVDVLAVSGKNINDICKYVIPSNDNGESENKVEEGESNDFKDDIEHRLDLMECTMKWQNIAPTAPDTLWCYPYTDKDPFVLDKWPHVYIVANQPYFGTRVVEIGGKNIKIISVPEFSSTGMIILLDLETLEAETVKIDI
On to B1, for which the binding result in test [1] is “binds”.

B2: Rev7, accessory subunit of DNA polymerase ζ (protein, UniProt P38927 1-245)
chain: MNRWVEKWLRVYLKCYINLILFYRNVYPPQSFDYTTYQSFNLPQFVPINRHPALIDYIEELILDVLSKLTHVYRFSICIINKKNDLCIEKYVLDFSELQHVDKDDQIITETEVFDEFRSSLNSLIMHLEKLPKVNDDTITFEAVINAIELELGHKLDRNRRVDSLEEKAEIERDSNWVKCQEDENLPDNNGFQPPKIKLTSLVGSDVGPLIIHQFSEKLISGDDKILNGVYSQYEEGESIFGSLF
As to B2, the binding entry in test [2] and in test [1] was “binds” in each case.
